Results are given in words; binding and its absence hold for the method and conditions named. In cells and extracts the contact can be indirect. A result given as binding can be weak or reduced; the word gives no strength.

Amino acid sequences for entries named in this document (tags omitted).
UniProt Q92462: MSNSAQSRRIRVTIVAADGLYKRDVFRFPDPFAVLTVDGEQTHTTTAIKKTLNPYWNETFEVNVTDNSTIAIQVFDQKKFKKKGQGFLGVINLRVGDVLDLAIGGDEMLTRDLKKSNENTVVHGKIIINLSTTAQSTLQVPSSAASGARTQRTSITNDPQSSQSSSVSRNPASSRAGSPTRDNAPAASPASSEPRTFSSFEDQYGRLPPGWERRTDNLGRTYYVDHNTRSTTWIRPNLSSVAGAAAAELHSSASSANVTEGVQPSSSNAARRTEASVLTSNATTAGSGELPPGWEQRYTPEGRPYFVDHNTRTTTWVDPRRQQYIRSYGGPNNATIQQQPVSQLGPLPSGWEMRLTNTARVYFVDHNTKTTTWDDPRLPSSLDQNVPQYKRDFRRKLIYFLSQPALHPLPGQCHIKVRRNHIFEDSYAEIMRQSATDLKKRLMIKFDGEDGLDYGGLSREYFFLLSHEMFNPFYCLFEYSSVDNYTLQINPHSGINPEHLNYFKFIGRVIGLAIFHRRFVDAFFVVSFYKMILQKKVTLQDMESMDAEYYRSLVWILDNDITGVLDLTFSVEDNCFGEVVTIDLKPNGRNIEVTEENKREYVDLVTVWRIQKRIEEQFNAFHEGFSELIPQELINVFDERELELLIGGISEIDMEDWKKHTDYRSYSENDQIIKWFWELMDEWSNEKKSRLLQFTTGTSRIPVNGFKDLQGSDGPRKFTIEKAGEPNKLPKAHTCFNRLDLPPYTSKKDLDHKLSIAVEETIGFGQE

The source of these data is paper PMC10721834.

For test [1], the target named is GFP-Cw9a(1-52) (S. pombe (natural isolate CBS5557)). Put plainly: co-IP; in vivo co-immunoprecipitation in S. pombe (Supplementary Fig. 1h); GFP-Trap agarose beads by the general method.
Test [2] addresses GST-tagged Cw9a(1-52) (S. pombe (natural isolate CBS5557)). The test can be described thus: pull-down; GST pull-down: E. coli lysate with the GST fusion mixed with S. pombe lysate with the 3×FLAG-tagged ubiquitin ligase, 4 °C, glutathione-sepharose beads; 50 mM phosphate pH 7.4, 200 mM NaCl, 10% glycerol, 0.05% NP-40; anti-FLAG blot.

“3×FLAG-tagged Pub1 (from UniProt Q92462 1-767) (enzyme)”: the binding entry in test [1] and in test [2] was “binds” each time.
